Where “and” joins values, the source holds several entries; their conditions need not be identical. Equal entries are not always repeated. This is one part of the list. Shown are side measurements of this screen, not its main read-out; they come without a call. Compounds called inactive in the main read-out are mostly missing here. The note in brackets gives the kind of curve behind each potency; many fits are weak.
Test: qHTS Assay for Lipid Storage Modulators in Drosophila S3 Cells;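 as to cell number change: cells counted by Cell Tracker Red CMTPX staining in the red channel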
Settings: BODIPY lipid droplet fluorescence, 18-24 h; for cell number change: measured here: cell count max response, cells fed with added oleic acid
Summary of the method: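 Laser-scanning cytometry quantifies lipid droplet accumulation (500–530 nm total intensity; droplet/cell object ratio) in oleic acid-fed (400 uM added) Drosophila S3 cells treated with a concentration series. 20 uM Triacsin C defined 100% inhibition.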

[1] = measured here: lipid fluorescence (Fed channel) AC50, cells fed with added oleic acid
[2] = measured here: cell number channel AC50, cells fed with added oleic acid

In the case of `CC(C)c1ccc(NC(=O)c2cnn(-c3ccccc3)c2NC(=O)c2ccco2)cc1`, the cell number change is reported as -9.01% and the AC50 [1] is reported as 0.731 µM [falling, full curve, poor fit].
`COc1cc([N+](=O)[O-])ccc1NC(=O)Cc1ccccc1` gave a cell number change of 157%.
For `S=C(N/N=C1\C2CN3CCN(C2)CC1(c1ccccc1)C3)Nc1ccccc1`, the cell number change was 117%, the AC50 [2] was 29.1 µM [rising, single point] and the AC50 [1] was 9.2 µM [rising, partial curve, poor fit].
With `CN(C)c1ccc(-c2cc(O)c3ncccc3c2)cc1` the cell number change was 21.3% and 25% and the AC50 [1] was 20.6 µM [rising, single point].
In the case of `Cc1ccc(C(=O)NCCSc2snnc2C)cc1`, the cell number change is reported as 59.9%, the AC50 [2] is reported as 8.2 µM [rising, partial curve] and the AC50 [1] is reported as 13 µM [rising, partial curve].
In the case of `CN(c1cccc(NC(=O)Cc2ccccc2)c1)S(C)(=O)=O`, the cell number change is reported as 10.6% and the AC50 [1] is reported as 29.1 µM [rising, partial curve, poor fit].
Work on `COc1ccccc1C1=NOC(COC(=O)c2ccc(Br)cc2)C1` (stereo not given) yielded a cell number change of -11.7%.
With `Cc1ccc(C)c(NC(=S)NNC(=O)c2sccc2C)c1` the cell number change was 33.7%, the AC50 [2] was 14.6 µM [rising, partial curve] and the AC50 [1] was 4.11 µM [rising, full curve].
For `COc1ccc(C)cc1Nc1c2c(nc3ccccc13)CCC2`, the cell number change was -24.8% and the AC50 [1] was 23.1 µM [falling, single point].
For `O=C(c1ccc(Cl)cc1)N1CCC(c2nc(-c3cccs3)no2)CC1`, the cell number change was -14.5% and the AC50 [1] was 6.51 µM [rising, single point].
In the case of `O=C(CCS(=O)(=O)c1ccccc1)N1CCN(c2ccccc2)CC1`, the cell number change is reported as 4.34% and the AC50 [1] is reported as 29.1 µM [rising, single point].
In the case of `N#C/C(=C\c1ccc(N2CCCCC2)o1)C(N)=O`, the cell number change is reported as -20.8% and the AC50 [1] is reported as 14.6 µM [falling, single point].
In the case of `CC(=O)N1CCc2cc(S(=O)(=O)NCC(=O)NCc3ccc(F)cc3)ccc21`, the AC50 [1] is reported as 29.1 µM [rising, single point].
With `Cn1ncc([N+](=O)[O-])c1C(=O)Nc1nccs1` the cell number change was -50% and the AC50 [2] was 2.59 µM [falling, partial curve, poor fit].
For `CCCCN(CC)C(=O)CSc1cc(=O)n(C)c2ccccc12`, the AC50 [2] was 2.59 µM [rising, partial curve].
In the case of `CN1CCN(CC(=O)N/N=C/c2ccc(F)c(F)c2)CC1`, the cell number change is reported as -2.73% and the AC50 [1] is reported as 6.51 µM [rising, partial curve, poor fit].
With `COC1=CCC2([N+](=O)[O-])CN(CC(=O)O)CC1([N+](=O)[O-])C2` (stereo not given) the cell number change was -22%, the AC50 [2] was 0.116 µM [falling, full curve, poor fit] and the AC50 [1] was 0.082 µM [falling, full curve, poor fit].
With `CC1=C(C(=O)OCc2ccccc2)C(c2ccco2)n2ncnc2N1` (stereo not given) the AC50 [1] was 6.51 µM [rising, single point].
With `COC(=O)c1cc(NC(=O)c2cccc(C(F)(F)F)c2)c(=O)oc1C` the cell number change was -6.71% and the AC50 [1] was 0.92 µM [rising, single point].
With `COc1cccc(NC(=O)c2ccccc2-c2ccccc2)c1` the cell number change was 10.8% and the AC50 [1] was 0.13 µM [rising, full curve, poor fit].
For `Cc1ccc(OCCOc2ccc(S(=O)(=O)N3CCCC3)cc2C(N)=O)cc1`, the cell number change was -8.15%.
With `CC(C)N(Cc1nc(-c2ccccc2)no1)C(=O)CSc1ccccc1` the cell number change was 200%, the AC50 [2] was 8.2 µM [rising, partial curve] and the AC50 [1] was 29.1 µM [rising, partial curve].
With `CCc1cccc2c(C=C(C#N)C#N)cn(CC(=O)N3CCCCCC3)c12` the cell number change was 31.6% and the AC50 [2] was 29.1 µM [rising, single point].
In the case of `CCCCOCCCNc1ncnc2c1[nH]c1ccccc12`, the cell number change is reported as -38.1%, the AC50 [2] is reported as 1.46 µM [falling, full curve, poor fit] and the AC50 [1] is reported as 5.17 µM [falling, partial curve].
For `Cc1cccc(Cn2c(N3CCN(C)CC3)nc3c2c(=O)[nH]c(=O)n3C)c1`, the cell number change was 16.6% and the AC50 [1] was 0.0651 µM [rising, full curve, poor fit].
With `OCCOCCOc1ccc(-c2nn[nH]n2)cc1` the cell number change was -50.7%, the AC50 [2] was 5.17 µM [falling, full curve, poor fit] and the AC50 [1] was 3.66 µM [falling, full curve].
For `COC(=O)c1c(C)oc2ccc(N(C(=O)Oc3ccccc3)S(=O)(=O)c3ccc(Cl)c([N+](=O)[O-])c3)cc12`, the cell number change was 11.8% and the AC50 [1] was 29.1 µM [rising, single point].
Compound `CCOc1cc(/C=N/NC(=O)c2cccc(S(=O)(=O)N3CCCC3)c2)ccc1OCC(=O)N(C)C` has a cell number change of 24.9%.
With `COc1cccc(CN(C)C(=O)c2cc(S(=O)(=O)N3CCCCCC3)ccc2OC)c1` the cell number change was 7.02% and the AC50 [1] was 3.26 µM [falling, single point].
For `O=C(NNC(=O)c1c(F)cccc1F)c1ccccc1-n1cccc1`, the cell number change was 7.74% and the AC50 [2] was 0.82 µM [rising, single point].
In the case of `Cc1ccc(OCC(=O)Nc2ccc3c(c2)C(=O)NC3=O)c(C)c1`, the cell number change is reported as 25.9% and the AC50 [1] is reported as 6.51 µM [rising, single point].
In the case of `CC1Sc2ccc(S(=O)(=O)N3CCC(C(=O)Nc4cccc(Cl)c4)CC3)cc2NC1=O` (stereo not given), the cell number change is reported as -15.1%.
In the case of `Cc1ccc(N(Cc2cc3ccccc3[nH]c2=O)C(=O)c2cccs2)cc1C`, the cell number change is reported as 6.71% and the AC50 [1] is reported as 0.146 µM [rising, partial curve, poor fit].
For `COc1cccc(OCC(O)CN(CCO)Cc2ccccc2)c1` (stereo not given), the cell number change was 1.98% and the AC50 [1] was 6.51 µM [falling, single point].
For `Cc1cc(=O)[nH]c(SCC(N)=O)c1C#N`, the AC50 [1] was 18.4 µM [falling, partial curve].
For `CCOc1cc(/C=C2\CN(C)C/C(=C\c3ccc(O)c(OCC)c3)C2=O)ccc1O`, the cell number change was -46.9%, the AC50 [2] was 18.4 µM [falling, single point] and the AC50 [1] was 16.4 µM [falling, partial curve].
In the case of `Cc1ccc(Nc2nc(-c3sc(N)nc3C)cs2)cc1`, the cell number change is reported as -74.3% and the AC50 [2] is reported as 14.6 µM [falling, partial curve].
For `O=C(CNC(=O)c1sc2ccccc2c1Cl)OCc1ccccc1`, the cell number change was 0.647% and the AC50 [1] was 0.58 µM [falling, full curve, poor fit].
For `O=c1[nH]cnc2c1C(c1ccccc1)c1c(nc[nH]c1=O)O2`, the cell number change was 5.56%.
In the case of `COc1ccc(C(C#N)c2cnccn2)cc1OC` (stereo not given), the cell number change is reported as 1.19%.
`CC(C)N(C)S(=O)(=O)c1ccc(NC(=O)C2=COCCO2)cc1` gave a cell number change of -16%.
Work on `CN(Cc1ccccc1)c1ccc(S(=O)(=O)N2CCOCC2)cn1` yielded a cell number change of 5.97%.
For `Cc1cc(C)c(S(=O)(=O)N2CCCC(C(=O)NCc3cccnc3)C2)c(C)c1` (stereo not given), the cell number change was -16.9% and the AC50 [1] was 6.51 µM [rising, single point].
For `CC(C)(C)CN1CCN(CC#Cc2ccccc2)CC1CCO` (stereo not given), the cell number change was 0.275% and the AC50 [1] was 6.51 µM [falling, single point].
For `CCCC(=O)Nc1ccc(C(=O)Nc2cc(C(F)(F)F)ccc2Cl)cc1`, the cell number change was -14.1% and the AC50 [1] was 29.1 µM [falling, single point].
In the case of `Cc1ccc(Cl)cc1Nc1nc(-c2cccnc2)cs1`, the cell number change is reported as -25.2% and the AC50 [1] is reported as 3.26 µM [rising, single point].
In the case of `COc1ccc(S(=O)(=O)N2CCCCCC2)cc1NC(=O)CN1C(=O)NC(C)(c2ccccc2)C1=O` (stereo not given), the AC50 [2] is reported as 0.731 µM [falling, partial curve, poor fit] and the AC50 [1] is reported as 16.4 µM [falling, partial curve, poor fit].
With `Cc1ccc(O)c(Nc2ncnc3ccc([N+](=O)[O-])cc23)c1` the cell number change was -47.3% and the AC50 [2] was 9.2 µM [falling, partial curve, poor fit].
In the case of `CC(OC(=O)Cn1[nH]c(=O)c2ccccc2c1=O)C(=O)Nc1ccc(F)cc1` (stereo not given), the AC50 [2] is reported as 7.31 µM [rising, single point].
With `CN(C)CCNc1nc(-c2ccco2)c2c(c1C#N)CC(C)(C)OC2` the cell number change was -50.8%, the AC50 [2] was 5.17 µM [falling, full curve] and the AC50 [1] was 29.1 µM [falling, single point].
`O=C(NCCCN1CCOCC1)c1sc2cc([N+](=O)[O-])ccc2c1Cl` showed a cell number change of -16.4%.
With `Cn1nc(-c2ccccc2)c(N2CCCCC2)cc1=O` the cell number change was -18.4%.
In the case of `COc1ccc(OC)c(/C=N/NC(=O)c2ccc(Cn3cc([N+](=O)[O-])cn3)o2)c1`, the cell number change is reported as -42.5%, the AC50 [2] is reported as 32.6 µM [falling, single point] and the AC50 [1] is reported as 29.1 µM [falling, single point].
For `COc1cccc(CNC(=O)c2cccnc2Sc2ccc(Cl)cc2)c1`, the cell number change was 12.6%, the AC50 [2] was 6.51 µM [rising, single point] and the AC50 [1] was 14.6 µM [rising, partial curve].
`COCC(C)NC(=O)c1ccc2nc(-c3ccccc3)c(-c3ccccc3)nc2c1` (stereo not given) gave a cell number change of -24.3%.
For `CC(=O)N1CCN(CC(C)(C)NS(=O)(=O)c2ccc(C)cc2)CC1`, the cell number change was -4.62% and the AC50 [1] was 0.146 µM [rising, full curve, poor fit].
In the case of `O=C(Nc1cccc(Cl)c1)C1C2C=CC3(O2)C1C(=O)N(CCN1CCCCC1)C3C(=O)NC1CCCCC1` (stereo not given), the cell number change is reported as 8.06% and the AC50 [1] is reported as 25.9 µM [falling, partial curve, poor fit].
For `Cc1ccc(S(=O)(=O)/N=C(/NC(=S)Nc2cccc(C)c2)c2ccccc2)cc1`, the cell number change was 91.1% and the AC50 [2] was 29.1 µM [rising, single point].
For `COc1ccc(CN2CCC(Oc3ccc(C(=O)N4CCCCC4)cc3)CC2)cc1C`, the cell number change was -1.98% and the AC50 [1] was 29.1 µM [falling, single point].
In the case of `Cc1oncc1C(=O)N1CCCC(CO)(Cc2ccc(F)cc2F)C1` (stereo not given), the cell number change is reported as -9.48%.
For `Cc1ccc(SCc2nc(-c3ccncc3)no2)cc1`, the cell number change was 5.69% and the AC50 [1] was 9.2 µM [rising, partial curve, poor fit].
